Results are given in words; binding and its absence hold for the method and conditions named. For some of these results: Binding seen in cells or lysates may run through a third protein. Some results given as binding are weak or reduced against the parent protein; the word gives no strength. For some of these results: Sequences can lack the tags named with a protein.
Tests used:
[1] = target: T1, lexA-Dys1 (pBTM116-Dys1) (yeast) (UniProt P38791); assay: two-hybrid; yeast strain L40; Gal4-AD fusion (pACT) with lexA fusion (pBTM116); growth on SC-leu,-trp,-his (HIS3) and β-gal filter assay (lacZ)
T1 sequence: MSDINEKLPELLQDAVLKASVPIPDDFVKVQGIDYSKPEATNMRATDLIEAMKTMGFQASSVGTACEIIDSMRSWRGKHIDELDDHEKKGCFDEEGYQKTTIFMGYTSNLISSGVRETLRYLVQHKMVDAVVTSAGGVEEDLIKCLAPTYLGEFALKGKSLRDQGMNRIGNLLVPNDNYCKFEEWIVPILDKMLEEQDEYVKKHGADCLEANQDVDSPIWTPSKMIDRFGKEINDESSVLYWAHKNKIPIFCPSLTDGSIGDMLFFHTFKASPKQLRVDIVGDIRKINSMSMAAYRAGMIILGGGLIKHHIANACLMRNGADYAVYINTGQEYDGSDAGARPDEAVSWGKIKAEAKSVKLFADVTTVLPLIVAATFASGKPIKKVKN

The chains behind the UniProt entries cited, without tags or fusion partners.
UniProt P32324: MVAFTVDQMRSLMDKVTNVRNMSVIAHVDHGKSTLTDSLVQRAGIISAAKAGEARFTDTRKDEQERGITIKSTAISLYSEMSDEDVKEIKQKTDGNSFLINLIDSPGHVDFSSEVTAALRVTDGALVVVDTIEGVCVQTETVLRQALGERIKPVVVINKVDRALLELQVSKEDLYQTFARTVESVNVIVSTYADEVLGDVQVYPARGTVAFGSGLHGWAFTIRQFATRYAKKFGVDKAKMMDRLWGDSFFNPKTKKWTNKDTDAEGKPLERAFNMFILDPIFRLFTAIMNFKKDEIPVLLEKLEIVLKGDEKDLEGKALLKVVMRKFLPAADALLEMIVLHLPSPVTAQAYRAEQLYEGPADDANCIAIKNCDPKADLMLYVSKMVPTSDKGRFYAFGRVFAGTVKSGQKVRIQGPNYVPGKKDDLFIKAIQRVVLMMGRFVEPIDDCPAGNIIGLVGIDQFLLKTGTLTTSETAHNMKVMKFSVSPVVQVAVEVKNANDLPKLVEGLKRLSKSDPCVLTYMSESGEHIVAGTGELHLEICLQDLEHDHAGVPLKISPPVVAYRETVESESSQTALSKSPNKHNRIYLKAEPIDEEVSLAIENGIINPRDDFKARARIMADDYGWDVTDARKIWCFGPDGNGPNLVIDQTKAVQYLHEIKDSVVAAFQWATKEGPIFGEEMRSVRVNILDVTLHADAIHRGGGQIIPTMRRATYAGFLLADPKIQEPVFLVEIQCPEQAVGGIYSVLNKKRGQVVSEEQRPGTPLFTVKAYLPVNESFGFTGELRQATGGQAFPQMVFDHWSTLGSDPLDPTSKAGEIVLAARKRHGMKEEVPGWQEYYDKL

[2] = target: T2, lexA-Lia1 (pBTM116-Lia1) (yeast) (UniProt P47120); assay: as above
T2 sequence: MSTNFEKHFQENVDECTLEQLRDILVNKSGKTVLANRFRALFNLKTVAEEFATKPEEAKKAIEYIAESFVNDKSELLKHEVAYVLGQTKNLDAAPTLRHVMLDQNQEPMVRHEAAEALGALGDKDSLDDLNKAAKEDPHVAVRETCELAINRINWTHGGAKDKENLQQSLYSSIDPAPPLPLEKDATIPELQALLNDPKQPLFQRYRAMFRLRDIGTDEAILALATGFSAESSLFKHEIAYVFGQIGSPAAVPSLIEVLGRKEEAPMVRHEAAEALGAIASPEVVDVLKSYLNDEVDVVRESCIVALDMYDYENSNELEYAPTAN

[3] = target: lexA-eEF2 (pBTM116-eEF2) (yeast) (UniProt P32324); assay: as above
GST-eIF5A = target: T3, GST-eIF5A (UniProt P23301); assay: pull-down; GST-eIF5A expressed in yeast; cells treated with 1% formaldehyde; lysate not treated with RNase A (polysomes kept); western blot of input and bound fractions
T3 sequence: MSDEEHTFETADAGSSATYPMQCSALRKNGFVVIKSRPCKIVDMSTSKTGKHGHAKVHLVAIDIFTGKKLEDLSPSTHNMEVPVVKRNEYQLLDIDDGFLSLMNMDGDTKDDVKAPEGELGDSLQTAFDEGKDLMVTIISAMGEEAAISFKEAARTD

Binder | binding [1] | binding [2] | binding [3] | binding (GST-eIF5A)
Gal4-eIF5A (pACT-eIF5A) (protein, UniProt P23301 1-157) MSDEEHTFETADAGSSATYPMQCSALRKNGFVVIKSRPCKIVDMSTSKTGKHGHAKVHLVAIDIFTGKKLEDLSPSTHNMEVPVVKRNEYQLLDIDDGFLSLMNMDGDTKDDVKAPEGELGDSLQTAFDEGKDLMVTIISAMGEEAAISFKEAARTD | binds | binds weakly | no binding | –
ribosomal protein L5 (Rpl5) (protein, UniProt P26321 1-297) MAFQKDAKSSAYSSRFQTPFRRRREGKTDYYQRKRLVTQHKAKYNTPKYRLVVRFTNKDIICQIISSTITGDVVLAAAYSHELPRYGITHGLTNWAAAYATGLLIARRTLQKLGLDETYKGVEEVEGEYELTEAVEDGPRPFKVFLDIGLQRTTTGARVFGALKGASDGGLYVPHSENRFPGWDFETEEIDPELLRSYIFGGHVSQYMEELADDDEERFSELFKGYLADDIDADSLEDIYTSAHEAIRADPAFKPTEKKFTKEQYAAESKKYRQTKLSKEERAARVAAKIAALAGQQ | – | – | – | binds

— paper PMC4845985
